Our source for the binding values is paper doi:10.1101/2020.06.12.149062.

By UniProt entry, the sequences of proteins in these tests, tags left out. Residues count along the entry.
UniProt P01132, residues 29-1217: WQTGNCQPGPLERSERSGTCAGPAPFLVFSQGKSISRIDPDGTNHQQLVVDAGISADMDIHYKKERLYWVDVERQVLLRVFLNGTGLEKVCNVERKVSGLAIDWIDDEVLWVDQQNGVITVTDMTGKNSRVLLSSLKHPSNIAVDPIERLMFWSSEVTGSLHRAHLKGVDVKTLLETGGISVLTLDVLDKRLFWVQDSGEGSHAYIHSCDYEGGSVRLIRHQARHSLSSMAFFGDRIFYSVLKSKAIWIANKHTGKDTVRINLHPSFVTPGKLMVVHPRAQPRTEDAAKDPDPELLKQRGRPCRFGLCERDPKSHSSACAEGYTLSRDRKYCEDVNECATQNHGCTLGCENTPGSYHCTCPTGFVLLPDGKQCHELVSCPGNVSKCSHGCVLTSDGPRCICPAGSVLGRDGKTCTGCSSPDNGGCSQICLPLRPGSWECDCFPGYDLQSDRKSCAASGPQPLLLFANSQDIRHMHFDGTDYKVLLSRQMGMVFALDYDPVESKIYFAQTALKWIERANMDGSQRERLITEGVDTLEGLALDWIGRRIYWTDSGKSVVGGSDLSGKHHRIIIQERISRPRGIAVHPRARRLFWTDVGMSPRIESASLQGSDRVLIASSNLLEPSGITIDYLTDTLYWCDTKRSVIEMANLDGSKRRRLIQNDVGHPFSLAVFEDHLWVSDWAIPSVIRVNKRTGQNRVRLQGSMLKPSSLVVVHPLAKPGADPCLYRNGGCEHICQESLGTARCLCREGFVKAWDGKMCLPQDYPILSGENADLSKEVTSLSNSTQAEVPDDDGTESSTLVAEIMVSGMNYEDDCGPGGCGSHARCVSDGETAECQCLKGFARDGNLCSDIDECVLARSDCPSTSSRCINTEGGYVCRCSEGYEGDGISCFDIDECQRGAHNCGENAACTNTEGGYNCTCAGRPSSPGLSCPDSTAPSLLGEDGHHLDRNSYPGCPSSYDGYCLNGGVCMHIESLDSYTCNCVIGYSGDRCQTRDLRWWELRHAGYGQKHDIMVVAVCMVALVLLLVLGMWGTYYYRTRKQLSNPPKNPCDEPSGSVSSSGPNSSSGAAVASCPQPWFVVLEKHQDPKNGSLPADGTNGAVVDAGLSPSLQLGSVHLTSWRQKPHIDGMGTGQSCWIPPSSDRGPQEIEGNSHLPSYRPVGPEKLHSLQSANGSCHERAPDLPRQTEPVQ
UniProt P12023, residues 18-770: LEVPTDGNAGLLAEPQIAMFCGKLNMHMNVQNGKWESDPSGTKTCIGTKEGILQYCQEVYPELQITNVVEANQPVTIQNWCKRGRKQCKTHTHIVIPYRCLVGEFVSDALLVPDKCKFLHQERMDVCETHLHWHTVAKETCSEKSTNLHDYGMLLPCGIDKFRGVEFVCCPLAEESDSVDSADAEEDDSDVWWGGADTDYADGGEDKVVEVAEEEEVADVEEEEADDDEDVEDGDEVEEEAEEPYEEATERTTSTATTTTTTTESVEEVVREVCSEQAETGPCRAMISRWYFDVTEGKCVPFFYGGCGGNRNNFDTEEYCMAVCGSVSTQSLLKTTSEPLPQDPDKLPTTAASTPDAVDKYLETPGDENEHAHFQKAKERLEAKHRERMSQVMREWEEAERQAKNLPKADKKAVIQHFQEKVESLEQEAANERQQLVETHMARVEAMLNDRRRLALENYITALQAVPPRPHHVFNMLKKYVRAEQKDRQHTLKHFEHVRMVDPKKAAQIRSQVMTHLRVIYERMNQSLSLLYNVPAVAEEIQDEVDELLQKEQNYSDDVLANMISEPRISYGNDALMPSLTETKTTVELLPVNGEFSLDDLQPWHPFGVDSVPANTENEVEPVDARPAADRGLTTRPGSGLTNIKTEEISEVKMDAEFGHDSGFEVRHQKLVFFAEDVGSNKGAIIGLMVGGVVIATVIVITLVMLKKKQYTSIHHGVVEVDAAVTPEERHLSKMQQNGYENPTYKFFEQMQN
UniProt P08592, residues 18-770: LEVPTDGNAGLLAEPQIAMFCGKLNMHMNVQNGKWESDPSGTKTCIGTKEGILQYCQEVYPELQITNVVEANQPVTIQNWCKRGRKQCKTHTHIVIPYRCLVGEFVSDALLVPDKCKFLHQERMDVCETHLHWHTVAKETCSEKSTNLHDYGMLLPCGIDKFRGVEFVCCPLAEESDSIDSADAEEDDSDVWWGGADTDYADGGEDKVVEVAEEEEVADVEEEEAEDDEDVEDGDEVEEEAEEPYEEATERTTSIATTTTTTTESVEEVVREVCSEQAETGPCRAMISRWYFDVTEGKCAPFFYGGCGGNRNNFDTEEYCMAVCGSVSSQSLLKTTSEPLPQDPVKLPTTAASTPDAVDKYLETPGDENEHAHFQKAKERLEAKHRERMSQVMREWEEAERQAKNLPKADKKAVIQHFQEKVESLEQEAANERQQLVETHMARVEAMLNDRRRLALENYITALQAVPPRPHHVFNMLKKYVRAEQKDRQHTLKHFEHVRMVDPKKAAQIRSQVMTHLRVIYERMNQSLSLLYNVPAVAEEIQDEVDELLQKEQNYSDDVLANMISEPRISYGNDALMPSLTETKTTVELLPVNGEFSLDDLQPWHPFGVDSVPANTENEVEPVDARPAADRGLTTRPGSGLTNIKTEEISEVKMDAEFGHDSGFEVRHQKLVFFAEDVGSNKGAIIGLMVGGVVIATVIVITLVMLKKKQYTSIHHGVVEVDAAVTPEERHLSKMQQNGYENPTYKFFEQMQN
UniProt P01133, residues 23-1207: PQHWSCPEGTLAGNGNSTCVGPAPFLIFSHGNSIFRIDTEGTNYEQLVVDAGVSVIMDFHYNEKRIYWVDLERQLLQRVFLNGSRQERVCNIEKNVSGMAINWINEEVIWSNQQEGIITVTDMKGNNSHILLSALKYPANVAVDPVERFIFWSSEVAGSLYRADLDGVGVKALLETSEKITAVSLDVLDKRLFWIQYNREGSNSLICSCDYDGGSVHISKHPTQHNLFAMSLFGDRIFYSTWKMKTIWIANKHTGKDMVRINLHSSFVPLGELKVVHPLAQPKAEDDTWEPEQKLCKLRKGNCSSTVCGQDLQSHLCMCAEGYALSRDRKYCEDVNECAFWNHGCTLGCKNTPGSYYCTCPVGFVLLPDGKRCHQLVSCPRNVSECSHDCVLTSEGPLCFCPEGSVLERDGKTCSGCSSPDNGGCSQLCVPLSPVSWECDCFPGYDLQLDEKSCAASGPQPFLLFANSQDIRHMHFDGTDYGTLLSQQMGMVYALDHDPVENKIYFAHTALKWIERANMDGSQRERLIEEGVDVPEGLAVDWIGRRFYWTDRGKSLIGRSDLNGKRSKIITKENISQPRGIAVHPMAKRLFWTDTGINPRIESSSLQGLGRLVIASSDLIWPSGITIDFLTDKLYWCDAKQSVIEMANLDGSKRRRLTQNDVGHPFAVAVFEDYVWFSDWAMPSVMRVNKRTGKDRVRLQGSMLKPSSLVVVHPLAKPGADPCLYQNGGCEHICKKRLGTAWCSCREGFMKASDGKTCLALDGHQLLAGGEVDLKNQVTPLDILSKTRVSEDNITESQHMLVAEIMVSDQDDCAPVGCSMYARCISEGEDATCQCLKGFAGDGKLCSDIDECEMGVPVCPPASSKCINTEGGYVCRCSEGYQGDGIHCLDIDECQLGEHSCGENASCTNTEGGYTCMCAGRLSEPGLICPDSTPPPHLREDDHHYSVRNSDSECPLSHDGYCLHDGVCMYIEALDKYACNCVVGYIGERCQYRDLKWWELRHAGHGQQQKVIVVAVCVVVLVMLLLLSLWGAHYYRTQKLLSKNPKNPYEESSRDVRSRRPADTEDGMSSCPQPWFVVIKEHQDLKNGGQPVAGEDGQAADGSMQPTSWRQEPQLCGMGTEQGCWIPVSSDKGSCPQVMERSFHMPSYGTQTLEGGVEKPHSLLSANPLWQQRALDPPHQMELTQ
UniProt P07522, residues 22-1133: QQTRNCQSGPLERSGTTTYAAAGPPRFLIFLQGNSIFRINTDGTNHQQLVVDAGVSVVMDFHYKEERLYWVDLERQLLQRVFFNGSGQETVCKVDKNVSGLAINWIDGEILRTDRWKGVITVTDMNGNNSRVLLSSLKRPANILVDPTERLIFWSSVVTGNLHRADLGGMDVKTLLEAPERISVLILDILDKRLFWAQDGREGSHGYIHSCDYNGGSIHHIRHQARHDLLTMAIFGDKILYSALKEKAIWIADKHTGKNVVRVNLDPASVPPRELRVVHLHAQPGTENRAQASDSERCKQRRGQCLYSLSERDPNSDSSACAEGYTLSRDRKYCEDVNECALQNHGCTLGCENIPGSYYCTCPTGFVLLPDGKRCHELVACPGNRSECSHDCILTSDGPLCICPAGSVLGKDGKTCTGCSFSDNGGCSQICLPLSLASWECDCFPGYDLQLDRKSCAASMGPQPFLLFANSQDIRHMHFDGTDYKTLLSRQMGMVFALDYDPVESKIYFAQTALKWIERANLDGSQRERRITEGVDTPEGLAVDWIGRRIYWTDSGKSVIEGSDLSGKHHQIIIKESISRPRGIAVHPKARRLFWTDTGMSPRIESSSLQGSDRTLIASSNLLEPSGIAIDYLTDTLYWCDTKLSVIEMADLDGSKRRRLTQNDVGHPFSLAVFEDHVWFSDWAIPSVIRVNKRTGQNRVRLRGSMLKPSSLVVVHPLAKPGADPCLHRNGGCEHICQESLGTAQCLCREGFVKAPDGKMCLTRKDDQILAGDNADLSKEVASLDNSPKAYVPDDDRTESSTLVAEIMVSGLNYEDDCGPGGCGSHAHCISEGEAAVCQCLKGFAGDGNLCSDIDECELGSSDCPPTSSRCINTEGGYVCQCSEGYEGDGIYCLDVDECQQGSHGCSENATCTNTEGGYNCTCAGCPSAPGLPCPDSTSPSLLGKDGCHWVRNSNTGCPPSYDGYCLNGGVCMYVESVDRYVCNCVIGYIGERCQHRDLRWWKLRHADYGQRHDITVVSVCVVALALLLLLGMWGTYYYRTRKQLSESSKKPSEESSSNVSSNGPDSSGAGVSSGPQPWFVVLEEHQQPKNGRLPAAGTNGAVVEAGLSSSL
UniProt Q99075, residues 20-208: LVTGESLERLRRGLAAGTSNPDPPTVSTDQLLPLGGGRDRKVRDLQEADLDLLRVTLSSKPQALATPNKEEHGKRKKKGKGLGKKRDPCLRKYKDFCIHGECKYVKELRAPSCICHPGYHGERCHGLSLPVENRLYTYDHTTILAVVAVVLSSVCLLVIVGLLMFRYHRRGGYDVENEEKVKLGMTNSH

Holding throughout (experiment): co-IP
Assay [1] concerns the target endogenous pro-EGF (mouse cortex) (mouse (endogenous in cortex)) (UniProt P01132).
Assay [2] has as its target human APP isoform 695 fused to GFP (APP695-GFP) (human) (UniProt P05067).
Assay [3] concerns the target endogenous APP (mouse cortex) (mouse (endogenous in cortex)) (UniProt P12023).
Assay [4] deals with endogenous APP (rat cortex) (rat (endogenous in cortex)) (UniProt P08592).

No constants are given. Whether binding was seen depends on the method and setting. Binding seen in cells or lysates may run through a third protein. Some binding calls cover weakened binding; strength is not graded here.

“endogenous APP (mouse cortex) (from UniProt P12023 18-770)”: the binding result in assay [1] is “binds”.
As for “endogenous pro-EGF (HeLa cells) (from UniProt P01133 23-1207)”, in assay [2], the binding entry is reported as “binds”.
For “endogenous pro-EGF (mouse cortex) (from UniProt P01132 29-1217)”, the binding entry in assay [3] is “binds”.
“endogenous pro-EGF (rat cortex) (from UniProt P07522 22-1133)”: the binding entry in assay [4] is “binds”.
On to “endogenous pro-HB-EGF (HeLa cells) (from UniProt Q99075 20-208)”, for which the binding result in assay [2] is “binds weakly”.
